Source: paper doi:10.1101/2023.07.11.548556
These are yes or no findings as the source states them, for the method shown.

Protein sequences, listed by entry. Tags and fused reporters are not part of them. Residues count along the entry.
UniProt Q07954, residues 20-4544: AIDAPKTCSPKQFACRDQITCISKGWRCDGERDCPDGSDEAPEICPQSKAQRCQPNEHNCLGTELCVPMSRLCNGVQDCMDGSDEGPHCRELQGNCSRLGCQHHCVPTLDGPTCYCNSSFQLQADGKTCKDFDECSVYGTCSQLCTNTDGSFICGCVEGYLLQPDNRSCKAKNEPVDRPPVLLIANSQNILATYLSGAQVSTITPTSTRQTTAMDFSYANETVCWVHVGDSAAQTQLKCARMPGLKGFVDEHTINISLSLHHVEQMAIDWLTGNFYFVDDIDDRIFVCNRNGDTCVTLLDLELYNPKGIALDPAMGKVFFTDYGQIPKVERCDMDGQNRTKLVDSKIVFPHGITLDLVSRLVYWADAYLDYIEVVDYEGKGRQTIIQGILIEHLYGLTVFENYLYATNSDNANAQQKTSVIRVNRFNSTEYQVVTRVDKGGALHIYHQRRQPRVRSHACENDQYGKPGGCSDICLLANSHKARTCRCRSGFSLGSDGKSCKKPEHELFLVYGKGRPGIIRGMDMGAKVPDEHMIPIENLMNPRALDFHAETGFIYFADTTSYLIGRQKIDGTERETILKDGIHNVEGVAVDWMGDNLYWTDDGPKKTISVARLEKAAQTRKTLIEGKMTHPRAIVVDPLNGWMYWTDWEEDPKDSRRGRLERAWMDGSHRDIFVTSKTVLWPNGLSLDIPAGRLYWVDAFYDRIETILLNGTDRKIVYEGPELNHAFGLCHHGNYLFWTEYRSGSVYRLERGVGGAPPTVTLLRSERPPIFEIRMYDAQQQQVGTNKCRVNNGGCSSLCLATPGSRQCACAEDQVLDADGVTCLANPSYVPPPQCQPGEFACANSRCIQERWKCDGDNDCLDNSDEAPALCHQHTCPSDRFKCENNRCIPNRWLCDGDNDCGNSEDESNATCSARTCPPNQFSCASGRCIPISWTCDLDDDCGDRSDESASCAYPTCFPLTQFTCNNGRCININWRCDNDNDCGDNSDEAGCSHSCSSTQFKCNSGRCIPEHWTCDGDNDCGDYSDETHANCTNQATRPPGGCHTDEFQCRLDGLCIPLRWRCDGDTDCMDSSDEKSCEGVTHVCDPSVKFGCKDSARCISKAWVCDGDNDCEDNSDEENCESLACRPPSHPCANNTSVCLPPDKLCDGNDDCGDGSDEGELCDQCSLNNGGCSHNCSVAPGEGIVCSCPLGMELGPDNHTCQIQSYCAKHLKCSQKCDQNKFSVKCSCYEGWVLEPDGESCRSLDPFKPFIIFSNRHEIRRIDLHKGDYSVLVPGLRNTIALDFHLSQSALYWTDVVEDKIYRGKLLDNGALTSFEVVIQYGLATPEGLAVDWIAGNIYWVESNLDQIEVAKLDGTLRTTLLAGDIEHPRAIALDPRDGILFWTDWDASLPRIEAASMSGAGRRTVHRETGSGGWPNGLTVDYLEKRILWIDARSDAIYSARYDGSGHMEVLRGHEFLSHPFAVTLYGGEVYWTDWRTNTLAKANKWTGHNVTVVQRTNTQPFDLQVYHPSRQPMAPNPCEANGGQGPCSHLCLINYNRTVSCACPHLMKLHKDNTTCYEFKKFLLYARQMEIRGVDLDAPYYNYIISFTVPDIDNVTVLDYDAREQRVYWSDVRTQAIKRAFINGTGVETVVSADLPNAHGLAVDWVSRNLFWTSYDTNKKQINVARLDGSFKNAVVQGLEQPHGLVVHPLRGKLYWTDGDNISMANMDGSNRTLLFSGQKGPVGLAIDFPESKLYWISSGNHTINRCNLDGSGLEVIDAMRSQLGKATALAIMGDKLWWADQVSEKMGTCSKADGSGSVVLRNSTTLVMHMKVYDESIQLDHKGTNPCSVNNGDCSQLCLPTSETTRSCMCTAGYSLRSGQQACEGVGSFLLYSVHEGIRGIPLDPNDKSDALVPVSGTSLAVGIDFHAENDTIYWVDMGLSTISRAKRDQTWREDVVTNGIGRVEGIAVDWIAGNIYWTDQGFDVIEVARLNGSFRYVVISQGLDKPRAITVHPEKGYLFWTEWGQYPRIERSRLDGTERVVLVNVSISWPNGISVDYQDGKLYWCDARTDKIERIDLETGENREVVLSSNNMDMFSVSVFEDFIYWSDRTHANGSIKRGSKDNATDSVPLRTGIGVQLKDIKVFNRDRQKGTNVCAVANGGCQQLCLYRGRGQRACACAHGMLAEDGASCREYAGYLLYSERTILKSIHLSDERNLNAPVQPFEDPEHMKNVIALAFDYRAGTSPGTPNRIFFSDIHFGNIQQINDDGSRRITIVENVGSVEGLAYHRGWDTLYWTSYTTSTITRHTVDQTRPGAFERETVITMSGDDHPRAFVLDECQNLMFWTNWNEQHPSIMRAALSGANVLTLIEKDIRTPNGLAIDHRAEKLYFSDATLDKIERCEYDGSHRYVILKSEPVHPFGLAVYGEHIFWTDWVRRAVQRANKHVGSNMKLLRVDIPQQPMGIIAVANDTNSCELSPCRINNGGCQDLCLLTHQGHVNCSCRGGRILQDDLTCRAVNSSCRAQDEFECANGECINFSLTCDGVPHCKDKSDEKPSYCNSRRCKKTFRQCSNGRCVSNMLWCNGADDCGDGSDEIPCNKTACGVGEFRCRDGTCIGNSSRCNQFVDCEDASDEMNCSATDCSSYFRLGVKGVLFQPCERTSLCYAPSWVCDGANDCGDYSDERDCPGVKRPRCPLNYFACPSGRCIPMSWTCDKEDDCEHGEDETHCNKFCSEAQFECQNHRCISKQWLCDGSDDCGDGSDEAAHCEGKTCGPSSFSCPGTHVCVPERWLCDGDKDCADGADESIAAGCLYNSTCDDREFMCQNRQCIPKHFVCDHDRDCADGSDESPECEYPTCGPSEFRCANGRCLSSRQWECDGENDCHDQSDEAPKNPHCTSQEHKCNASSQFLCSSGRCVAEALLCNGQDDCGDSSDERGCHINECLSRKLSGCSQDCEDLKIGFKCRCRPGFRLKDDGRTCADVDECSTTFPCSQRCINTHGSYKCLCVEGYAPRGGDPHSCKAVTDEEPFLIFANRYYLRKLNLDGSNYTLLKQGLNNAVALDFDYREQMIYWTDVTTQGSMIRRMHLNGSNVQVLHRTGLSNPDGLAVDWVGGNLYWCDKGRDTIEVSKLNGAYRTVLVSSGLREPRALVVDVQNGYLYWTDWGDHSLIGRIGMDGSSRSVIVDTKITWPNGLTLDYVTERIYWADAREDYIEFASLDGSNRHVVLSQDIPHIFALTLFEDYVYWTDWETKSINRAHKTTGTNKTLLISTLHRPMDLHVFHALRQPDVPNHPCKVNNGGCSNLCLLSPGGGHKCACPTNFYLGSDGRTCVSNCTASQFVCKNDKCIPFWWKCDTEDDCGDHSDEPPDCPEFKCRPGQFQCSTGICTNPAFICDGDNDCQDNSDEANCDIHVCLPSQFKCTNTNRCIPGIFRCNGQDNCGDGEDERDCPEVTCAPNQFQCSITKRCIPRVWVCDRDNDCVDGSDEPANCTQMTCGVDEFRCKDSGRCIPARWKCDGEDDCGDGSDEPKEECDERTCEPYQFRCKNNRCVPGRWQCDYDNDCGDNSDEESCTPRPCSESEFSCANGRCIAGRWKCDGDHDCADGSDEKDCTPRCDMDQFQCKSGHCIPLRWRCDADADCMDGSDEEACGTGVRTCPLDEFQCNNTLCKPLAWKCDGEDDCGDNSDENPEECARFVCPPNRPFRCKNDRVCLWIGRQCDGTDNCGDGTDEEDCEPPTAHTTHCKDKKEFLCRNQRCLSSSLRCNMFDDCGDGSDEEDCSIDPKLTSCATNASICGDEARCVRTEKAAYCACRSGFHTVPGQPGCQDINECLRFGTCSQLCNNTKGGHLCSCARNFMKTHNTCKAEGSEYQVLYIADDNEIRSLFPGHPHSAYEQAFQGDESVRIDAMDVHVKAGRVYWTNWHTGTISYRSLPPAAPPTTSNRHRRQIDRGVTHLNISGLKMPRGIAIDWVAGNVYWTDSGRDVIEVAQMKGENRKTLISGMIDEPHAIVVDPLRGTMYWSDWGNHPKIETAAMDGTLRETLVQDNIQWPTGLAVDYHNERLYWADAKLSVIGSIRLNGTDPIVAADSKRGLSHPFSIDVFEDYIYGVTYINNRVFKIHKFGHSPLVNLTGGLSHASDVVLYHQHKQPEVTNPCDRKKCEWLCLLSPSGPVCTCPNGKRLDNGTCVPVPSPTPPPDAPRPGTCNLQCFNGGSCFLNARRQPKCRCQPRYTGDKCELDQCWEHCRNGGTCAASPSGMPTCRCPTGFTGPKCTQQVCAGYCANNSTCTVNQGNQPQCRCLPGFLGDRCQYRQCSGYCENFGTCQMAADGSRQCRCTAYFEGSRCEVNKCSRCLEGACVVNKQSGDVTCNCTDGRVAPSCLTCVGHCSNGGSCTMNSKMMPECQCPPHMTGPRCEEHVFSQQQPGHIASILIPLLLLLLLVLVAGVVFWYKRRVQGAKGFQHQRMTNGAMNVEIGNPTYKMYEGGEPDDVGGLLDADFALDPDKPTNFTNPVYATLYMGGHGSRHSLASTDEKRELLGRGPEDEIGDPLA
UniProt P56704, residues 19-352: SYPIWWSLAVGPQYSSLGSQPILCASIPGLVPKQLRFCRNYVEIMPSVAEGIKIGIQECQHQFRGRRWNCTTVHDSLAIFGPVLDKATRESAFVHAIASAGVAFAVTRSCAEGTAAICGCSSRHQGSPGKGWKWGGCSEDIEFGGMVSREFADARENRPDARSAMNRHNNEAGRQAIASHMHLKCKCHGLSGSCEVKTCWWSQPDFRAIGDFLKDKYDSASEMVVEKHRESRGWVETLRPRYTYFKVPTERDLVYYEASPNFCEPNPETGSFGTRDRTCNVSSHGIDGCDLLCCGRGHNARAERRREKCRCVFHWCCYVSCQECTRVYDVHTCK

Target: Low-density lipoprotein receptor-related protein 1 (LRP1), purified human full-length (human) (UniProt Q07954)
Experiment: ELISA

binding: no binding (tested: >200 nM)
Substance: Wnt3a (from UniProt P56704 19-352) (ligand)
